PubChem BioAssay AID540275 (National Center for Advancing Translational Sciences (NCATS), 2011)
Among all 320,000 compounds or so, about 620 (0.19%) were called active. The shares of active, inactive and inconclusive entries below differ from those in the screen. Rule as the data show it: active = activation above about 80%; inconclusive = between about 30% and that limit; inactive = weaker than that.

By UniProt entry, the sequences of proteins in these tests, tags left out.
UniProt Q8NER1, whole entry, looked up: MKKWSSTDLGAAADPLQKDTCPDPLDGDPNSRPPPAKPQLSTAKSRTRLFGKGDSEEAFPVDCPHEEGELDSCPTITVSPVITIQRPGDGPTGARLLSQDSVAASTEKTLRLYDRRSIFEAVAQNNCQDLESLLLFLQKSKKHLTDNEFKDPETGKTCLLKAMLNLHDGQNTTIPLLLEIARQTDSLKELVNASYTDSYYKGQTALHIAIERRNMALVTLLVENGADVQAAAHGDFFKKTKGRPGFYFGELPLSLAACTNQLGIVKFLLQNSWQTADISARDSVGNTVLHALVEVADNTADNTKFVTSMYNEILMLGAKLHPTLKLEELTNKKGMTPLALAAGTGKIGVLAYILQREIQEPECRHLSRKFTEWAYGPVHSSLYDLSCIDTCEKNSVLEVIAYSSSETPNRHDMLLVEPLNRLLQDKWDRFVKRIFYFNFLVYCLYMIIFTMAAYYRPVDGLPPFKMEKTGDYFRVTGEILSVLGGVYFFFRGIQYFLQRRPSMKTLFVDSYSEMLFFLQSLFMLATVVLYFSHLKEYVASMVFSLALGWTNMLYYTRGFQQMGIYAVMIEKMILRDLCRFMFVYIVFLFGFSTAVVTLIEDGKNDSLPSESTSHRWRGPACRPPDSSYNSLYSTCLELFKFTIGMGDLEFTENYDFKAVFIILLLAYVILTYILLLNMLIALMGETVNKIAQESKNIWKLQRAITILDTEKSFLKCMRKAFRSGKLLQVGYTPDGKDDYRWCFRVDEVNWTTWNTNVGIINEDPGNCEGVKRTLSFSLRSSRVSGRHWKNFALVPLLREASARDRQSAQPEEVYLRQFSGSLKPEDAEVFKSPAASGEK

Biological target: Transient receptor potential cation channel subfamily V member 1 (Homo sapiens) (UniProt Q8NER1)
Assay: HTS Assay for Compounds that Act as Agonists of the Vanilloid Receptor 1; also: 0% is about no effect
Conditions: TRPV1-expressing cells, Fluo-8 calcium influx, agonist mode; at 8.33 µM, hits give high values
In short: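 Fluo-8 calcium influx in TRPV1-expressing cells, kinetic read (ex 480/em 520 nm). Compound added and read 3 min for agonist activity, followed by capsaicin at EC20 final and 2 min further read for enhancement.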

Structure (SMILES)	activation
COc1ccc(CNc2oc(COc3ccc(Cl)cc3)nc2C#N)cc1	inactive: 7.15%
CC(C)c1ccc(-c2nn(-c3ccccc3)cc2C(=O)NCC2CCCO2)cc1 (centres undefined)	inconclusive: 69.7%
COC(=O)c1cc2c(=O)c3ccccc3oc2nc1/C=C/N(C)C	inconclusive: 48.9%
O=C(NCC1CCCO1)c1cc(-c2ccccc2)nc2ccc(Br)cc12 (centres undefined)	inconclusive: 43%
CN(C)S(=O)(=O)c1ccc(C(=O)OCC(=O)Nc2ccc(OC(F)F)cc2)cc1	inactive: 2.98%
CCN(CC)S(=O)(=O)c1cccc(NC(=O)Nc2cccc(C(F)(F)F)c2)c1	inactive: 3.96%
Cc1sc2nc(COC(=O)c3cccc(S(=O)(=O)N(C)c4ccccc4)c3)[nH]c(=O)c2c1C	inactive: 2.75%
O=C(Nc1nc2c(Cl)cccc2s1)c1ccc([N+](=O)[O-])o1	inactive: 1.05%
CCCCCCSc1cccc(-c2nc3cc(C)ccn3c2NCc2ccccc2)c1	inconclusive: 73.7%
Cc1cccc(CSCCNC(=S)Nc2ccccc2)c1	inconclusive: 48.9%
CCc1nc(N2CCN(Cc3ccc4c(c3)OCO4)CC2)c2oc3ccccc3c2n1	inconclusive: 30.4%
Cc1c(Cl)cccc1-n1nnnc1-c1cccs1	inconclusive: 35.8%
COc1ccc(-n2nc3c(N4CCC(C(=O)NCc5ccccc5)CC4)nnc(C)c3c2C)cc1	inconclusive: 60%
CCOC(=O)C1CCCN(c2c(N3CCC(N4CCCCC4)CC3)c(=O)c2=O)C1 (centres undefined)	inactive: -0.486%
COc1cc(/C=C/C(=O)/C=C(O)/C=C/c2ccc(O)c(OC)c2)ccc1O	inconclusive: 35.7%
Cc1ccc(/C=C/C(=O)NC(C)c2ccccc2)cc1 (centres undefined)	inconclusive: 51.1%
CCCC(=O)Nc1cccc(-c2nc3ccccc3o2)c1	inconclusive: 32.6%
CC1CCN(C(=O)CCC(=O)N2CC(C)Oc3ccccc32)CC1 (centres undefined)	inconclusive: 46.5%
Cc1ccc(-c2c(C(=O)N/N=C/c3ccco3)nnn2-c2nonc2N)cc1	inconclusive: 46.1%
Oc1ccccc1CNc1cnc2ccccc2c1	inactive: 15.1%
CCCCN(C)C(=O)C1CCCN(S(=O)(=O)c2ccc3c(c2)CC(C)N3C(=O)C2CC2)C1 (centres undefined)	inconclusive: 44.7%
CCOc1ccc(C(=O)Nc2cc(-c3nc4ccccc4[nH]3)ccc2C)cc1[N+](=O)[O-]	inactive: 0.119%

Structure (SMILES)	activation
COc1ccc(/C(=N/OC(C)=O)c2nccc3cc(OC)c(OC)cc23)cc1OC	inactive: -6.61%
CC(=C/c1ccccc1)/C=N/NC(=O)c1ccccn1	inconclusive: 62.7%
N/C(=N\OCc1ccc([N+](=O)[O-])cc1)c1ccccn1	inactive: -2.96%
Cc1cc(C)c2oc(C(=O)NCCc3ccc(S(N)(=O)=O)cc3)cc(=O)c2c1	inactive: 1.65%
N#Cc1nc(-c2ccco2)oc1N1CCN(Cc2ccccc2)CC1	inconclusive: 40.8%
CCOC(=O)NC(=O)CSc1cc(C)c2cc(C)cc(C)c2n1	inconclusive: 33.7%
Clc1ccc2oc(-c3ccccn3)nc2c1	inactive: 12.7%
CCCNC(=O)c1ccc2c(c1)C1C3CCC(C3)C1C(c1ccccc1)N2 (centres undefined)	inconclusive: 41.2%
CCC(C)c1ccccc1NC(=S)NC(=O)c1ccco1 (centres undefined)	inconclusive: 35.3%
O=C(CSc1nc(CCC2CCCC2)nc2ccccc12)NCc1ccc2c(c1)OCO2	inconclusive: 46.9%
CCOc1ccccc1NC(=O)CCCn1cc([N+](=O)[O-])cn1	inactive: -0.817%
Cc1cc(S(=O)(=O)N(Cc2ccccc2)Cc2ccc(N(C)C)cc2)ccc1-n1cnnn1	inconclusive: 45.4%
CN(C1CCCCC1)S(=O)(=O)c1ccc(SCC(=O)NC(C)(C)C)nc1	inconclusive: 33.4%
Cc1c(CN2CCC(n3nccc3NC(=O)c3cccc(F)c3)CC2)cnn1C	inactive: -3.34%
O=C(Nc1cnccn1)c1csc2ccccc12	inconclusive: 38.6%
CCCN(C(=O)Cn1ncc2c([nH]c3ccccc32)c1=O)c1ccccc1C	inconclusive: 36.7%
CCCCNC(=O)c1onc(CSc2ccccc2)c1C(=O)NCCCC	inconclusive: 47.5%
CCCCOc1ccccc1Cn1c(=O)oc2ccc(C)cc21	inconclusive: 32.4%
O=C(NNC(=O)c1ccccc1OCc1ccccc1)c1ccccc1O	inconclusive: 37.7%
COc1ccc(NC(=O)C2CCN(S(=O)(=O)c3cccc4nonc34)CC2)cc1OC	inconclusive: 31.9%
CCCN(C(=O)c1cc(S(=O)(=O)N2CCCCC2)ccc1Cl)C1CCS(=O)(=O)C1 (centres undefined)	inactive: 8.56%
COc1ccc(-c2nn(-c3ccccc3)cc2C(=O)NCC(c2cccs2)N2CCOCC2)cc1 (centres undefined)	inconclusive: 46.9%

9 entries already listed, arranged by molar mass, smallest number first:
Structure (SMILES)	activation
N/C(=N\OCc1ccc([N+](=O)[O-])cc1)c1ccccn1	inactive: -2.96%
COC(=O)c1cc2c(=O)c3ccccc3oc2nc1/C=C/N(C)C	inconclusive: 48.9%
COc1ccc(CNc2oc(COc3ccc(Cl)cc3)nc2C#N)cc1	inactive: 7.15%
CC(C)c1ccc(-c2nn(-c3ccccc3)cc2C(=O)NCC2CCCO2)cc1 (centres undefined)	inconclusive: 69.7%
Cc1cc(C)c2oc(C(=O)NCCc3ccc(S(N)(=O)=O)cc3)cc(=O)c2c1	inactive: 1.65%
CCOC(=O)C1CCCN(c2c(N3CCC(N4CCCCC4)CC3)c(=O)c2=O)C1 (centres undefined)	inactive: -0.486%
O=C(NCC1CCCO1)c1cc(-c2ccccc2)nc2ccc(Br)cc12 (centres undefined)	inconclusive: 43%
Cc1cc(S(=O)(=O)N(Cc2ccccc2)Cc2ccc(N(C)C)cc2)ccc1-n1cnnn1	inconclusive: 45.4%
COc1ccc(-c2nn(-c3ccccc3)cc2C(=O)NCC(c2cccs2)N2CCOCC2)cc1 (centres undefined)	inconclusive: 46.9%
